Measured data: PubChem BioAssay AID686943 (Drosophila RNAi Screening Center, 2013)
The screen tested about 23,000 reagents; below is a random part of those with a known target gene and a result. 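Extra replicates exist only for a retested subset of genes; insulin dose and duration not given; both raised and lowered dpERK matter.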 No sequences are given here. Not stated in the record: the amount of reagent, the time to read-out.

- Test: 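Fly genes whose loss alters ERK activation after insulin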 (primary screen)
- Cell system: Drosophila S2R+ haemocyte-like cells expressing YFP-tagged ERK (Rolled)
- Reagents: long dsRNA against Drosophila genes
- Treatment: insulin stimulation versus unstimulated cells; dose and duration not given
- Measured: 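Antibody staining for doubly phosphorylated ERK divided by ERK-YFP signal, as plate z-scores, in insulin-treated and untreated cells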
- Direction: replicate 1, z-score of dpERK with insulin and replicate 2, z-score of dpERK with insulin: higher = more active ERK per ERK-YFP after insulin; replicate 1, z-score of dpERK under basal conditions: higher = more basal active ERK per ERK-YFP; replicate 1, z-score of ERK-YFP with insulin: higher = more YFP-tagged ERK signal

target gene | amplicon | replicate 1, z-score of dpERK with insulin | replicate 2, z-score of dpERK with insulin | replicate 1, z-score of dpERK under basal conditions | replicate 1, z-score of ERK-YFP with insulin
senju | DRSC02366 | 0.53 | 1.18 | 0.37 | -1
CG2921 | DRSC04324 | 0.45 | 0.37 | 0.27 | 0.17
lncRNA:CR32835 (long non-coding RNA:CR32835) | DRSC22693 | 1.42 | -0.07 | -1.27 | -0.78
PIG-K (Phosphatidylinositol glycan anchor biosynthesis class K) | DRSC18496 | 0.31 | -0.03 | 1.05 | 0.36
CG14626 | DRSC18631 | 0 | 0 | 0.41 | 0.43
CG43116 | DRSC13737 | -4.4 | -3.48 | -1.36 | 0.55
hpRNA:CR32207 (hairpin RNA:CR32207) | DRSC09616 | 0 | 0.45 | -0.32 | 0.3
nrv1 (nervana 1) | DRSC03382 | 3.35 | 2.53 | -0.37 | -0.32
CG4793 | DRSC01966 | 0.68 | 0.12 | 1.04 | -0.8
Dnah3 (dynein, axonemal, heavy chain 3) | DRSC08130 | 0.29 | 0.26 | 0.67 | 0.11
Dnah3 (dynein, axonemal, heavy chain 3) | DRSC08513 | -0.3 | 0.04 | -0.28 | 0.17
mthl14 (methuselah-like 14) | DRSC07865 | -0.23 | -0.08 | -0.2 | 0.61
PNUTS (Phosphatase 1 nuclear targeting subunit) | DRSC00638 | 0.96 | -0.01 | -1.22 | 1.08
PNUTS (Phosphatase 1 nuclear targeting subunit) | DRSC22136 | 3.18 | 0.7 | -0.88 | 2
CG30355 | DRSC21958 | 0.47 | 0.44 | 0.11 | 0.75
CNPYb (Canopy b) | DRSC09845 | 0.33 | 0.19 | -0.77 | -0.2
Asph (Aspartyl beta-hydroxylase) | DRSC06783 | -0.41 | -0.06 | -0.95 | 0.43
Asph (Aspartyl beta-hydroxylase) | DRSC07171 | 0.88 | 0.65 | -0.16 | 0.03
CG40378 (retired record) | DRSC20958 | -0.38 | 0.47 | 0.98 | -0.71
CG40378 (retired record) | DRSC22174 | 0.16 | 0.14 | 0.58 | 0.52
CG16756 | DRSC18115 | -1.72 | -1.13 | -0.17 | 0.1
CG14082 | DRSC10086 | 1.01 | 0.24 | -0.92 | -0.5
plu (plutonium) | DRSC07665 | -0.84 | -0.16 | -0.64 | -0.44
